Measured values published in the supplement of paper PMC10849652.
Some of the results follow.

Sequences of proteins named here, by UniProt entry; tags and fusion partners are left off. A change or cut given only in a name is not applied to a line headed by its entry.
UniProt Q9NXV6: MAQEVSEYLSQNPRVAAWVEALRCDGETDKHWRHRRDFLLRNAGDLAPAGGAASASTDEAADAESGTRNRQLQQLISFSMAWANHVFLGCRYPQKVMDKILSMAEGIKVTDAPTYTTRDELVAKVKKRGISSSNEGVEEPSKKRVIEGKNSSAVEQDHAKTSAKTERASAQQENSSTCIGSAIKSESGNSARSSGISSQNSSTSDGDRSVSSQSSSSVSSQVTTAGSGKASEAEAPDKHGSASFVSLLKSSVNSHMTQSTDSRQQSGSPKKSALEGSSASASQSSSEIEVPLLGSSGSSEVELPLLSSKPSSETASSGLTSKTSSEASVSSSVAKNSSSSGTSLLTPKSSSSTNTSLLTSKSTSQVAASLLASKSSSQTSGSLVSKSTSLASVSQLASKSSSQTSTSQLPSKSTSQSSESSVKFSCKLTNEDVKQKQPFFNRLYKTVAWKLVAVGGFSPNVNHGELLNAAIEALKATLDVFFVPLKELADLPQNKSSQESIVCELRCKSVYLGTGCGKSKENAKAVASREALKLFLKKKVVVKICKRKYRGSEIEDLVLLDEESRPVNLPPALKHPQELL
UniProt Q03701: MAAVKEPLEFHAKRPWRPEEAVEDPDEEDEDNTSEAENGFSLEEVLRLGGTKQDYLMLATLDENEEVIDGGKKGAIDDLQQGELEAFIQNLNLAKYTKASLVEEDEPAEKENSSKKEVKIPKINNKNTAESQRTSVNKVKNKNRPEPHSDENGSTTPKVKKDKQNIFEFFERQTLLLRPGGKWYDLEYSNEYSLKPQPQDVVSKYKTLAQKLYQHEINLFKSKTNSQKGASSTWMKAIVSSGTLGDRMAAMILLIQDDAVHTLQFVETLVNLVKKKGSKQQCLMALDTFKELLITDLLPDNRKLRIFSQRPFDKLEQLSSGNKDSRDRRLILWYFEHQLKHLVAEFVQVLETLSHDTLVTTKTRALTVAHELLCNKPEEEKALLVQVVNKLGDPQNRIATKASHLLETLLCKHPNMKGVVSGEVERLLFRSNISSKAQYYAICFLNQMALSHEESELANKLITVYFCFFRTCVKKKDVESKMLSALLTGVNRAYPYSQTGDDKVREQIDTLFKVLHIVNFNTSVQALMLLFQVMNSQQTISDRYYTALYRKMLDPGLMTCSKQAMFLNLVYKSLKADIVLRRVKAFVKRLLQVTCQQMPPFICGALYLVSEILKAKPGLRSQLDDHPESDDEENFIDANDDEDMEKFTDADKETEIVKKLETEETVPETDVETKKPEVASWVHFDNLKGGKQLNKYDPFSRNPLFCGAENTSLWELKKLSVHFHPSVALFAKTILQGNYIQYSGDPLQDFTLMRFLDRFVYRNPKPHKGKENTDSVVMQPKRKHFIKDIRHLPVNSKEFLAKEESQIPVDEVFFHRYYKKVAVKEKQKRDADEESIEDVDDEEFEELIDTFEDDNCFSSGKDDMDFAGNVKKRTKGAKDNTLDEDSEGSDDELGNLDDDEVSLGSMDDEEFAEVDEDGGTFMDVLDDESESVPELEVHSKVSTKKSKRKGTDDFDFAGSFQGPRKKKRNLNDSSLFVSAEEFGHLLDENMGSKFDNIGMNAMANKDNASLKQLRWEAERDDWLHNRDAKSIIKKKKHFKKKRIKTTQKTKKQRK
UniProt O95674: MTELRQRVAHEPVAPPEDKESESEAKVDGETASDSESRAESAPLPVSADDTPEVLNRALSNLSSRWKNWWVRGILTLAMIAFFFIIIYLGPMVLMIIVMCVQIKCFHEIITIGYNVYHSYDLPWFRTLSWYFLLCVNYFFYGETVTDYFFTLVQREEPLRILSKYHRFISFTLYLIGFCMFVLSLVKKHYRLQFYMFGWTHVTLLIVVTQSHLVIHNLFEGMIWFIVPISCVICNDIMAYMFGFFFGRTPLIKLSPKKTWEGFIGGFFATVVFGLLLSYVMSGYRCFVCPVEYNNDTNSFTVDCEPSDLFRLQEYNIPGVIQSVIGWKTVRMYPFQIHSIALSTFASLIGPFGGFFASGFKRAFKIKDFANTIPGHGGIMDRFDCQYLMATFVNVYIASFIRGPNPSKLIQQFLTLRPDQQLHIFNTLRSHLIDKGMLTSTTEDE
UniProt Q9UFW8: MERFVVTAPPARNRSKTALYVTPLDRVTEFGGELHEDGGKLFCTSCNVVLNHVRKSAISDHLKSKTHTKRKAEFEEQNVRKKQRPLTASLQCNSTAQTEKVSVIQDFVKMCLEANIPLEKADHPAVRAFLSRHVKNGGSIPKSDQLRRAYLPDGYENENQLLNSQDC
UniProt P42773: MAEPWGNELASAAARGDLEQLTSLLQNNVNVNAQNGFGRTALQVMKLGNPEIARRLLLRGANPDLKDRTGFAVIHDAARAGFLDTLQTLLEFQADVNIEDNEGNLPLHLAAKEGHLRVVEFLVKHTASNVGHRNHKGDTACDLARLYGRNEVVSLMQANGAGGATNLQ
UniProt Q5SW79: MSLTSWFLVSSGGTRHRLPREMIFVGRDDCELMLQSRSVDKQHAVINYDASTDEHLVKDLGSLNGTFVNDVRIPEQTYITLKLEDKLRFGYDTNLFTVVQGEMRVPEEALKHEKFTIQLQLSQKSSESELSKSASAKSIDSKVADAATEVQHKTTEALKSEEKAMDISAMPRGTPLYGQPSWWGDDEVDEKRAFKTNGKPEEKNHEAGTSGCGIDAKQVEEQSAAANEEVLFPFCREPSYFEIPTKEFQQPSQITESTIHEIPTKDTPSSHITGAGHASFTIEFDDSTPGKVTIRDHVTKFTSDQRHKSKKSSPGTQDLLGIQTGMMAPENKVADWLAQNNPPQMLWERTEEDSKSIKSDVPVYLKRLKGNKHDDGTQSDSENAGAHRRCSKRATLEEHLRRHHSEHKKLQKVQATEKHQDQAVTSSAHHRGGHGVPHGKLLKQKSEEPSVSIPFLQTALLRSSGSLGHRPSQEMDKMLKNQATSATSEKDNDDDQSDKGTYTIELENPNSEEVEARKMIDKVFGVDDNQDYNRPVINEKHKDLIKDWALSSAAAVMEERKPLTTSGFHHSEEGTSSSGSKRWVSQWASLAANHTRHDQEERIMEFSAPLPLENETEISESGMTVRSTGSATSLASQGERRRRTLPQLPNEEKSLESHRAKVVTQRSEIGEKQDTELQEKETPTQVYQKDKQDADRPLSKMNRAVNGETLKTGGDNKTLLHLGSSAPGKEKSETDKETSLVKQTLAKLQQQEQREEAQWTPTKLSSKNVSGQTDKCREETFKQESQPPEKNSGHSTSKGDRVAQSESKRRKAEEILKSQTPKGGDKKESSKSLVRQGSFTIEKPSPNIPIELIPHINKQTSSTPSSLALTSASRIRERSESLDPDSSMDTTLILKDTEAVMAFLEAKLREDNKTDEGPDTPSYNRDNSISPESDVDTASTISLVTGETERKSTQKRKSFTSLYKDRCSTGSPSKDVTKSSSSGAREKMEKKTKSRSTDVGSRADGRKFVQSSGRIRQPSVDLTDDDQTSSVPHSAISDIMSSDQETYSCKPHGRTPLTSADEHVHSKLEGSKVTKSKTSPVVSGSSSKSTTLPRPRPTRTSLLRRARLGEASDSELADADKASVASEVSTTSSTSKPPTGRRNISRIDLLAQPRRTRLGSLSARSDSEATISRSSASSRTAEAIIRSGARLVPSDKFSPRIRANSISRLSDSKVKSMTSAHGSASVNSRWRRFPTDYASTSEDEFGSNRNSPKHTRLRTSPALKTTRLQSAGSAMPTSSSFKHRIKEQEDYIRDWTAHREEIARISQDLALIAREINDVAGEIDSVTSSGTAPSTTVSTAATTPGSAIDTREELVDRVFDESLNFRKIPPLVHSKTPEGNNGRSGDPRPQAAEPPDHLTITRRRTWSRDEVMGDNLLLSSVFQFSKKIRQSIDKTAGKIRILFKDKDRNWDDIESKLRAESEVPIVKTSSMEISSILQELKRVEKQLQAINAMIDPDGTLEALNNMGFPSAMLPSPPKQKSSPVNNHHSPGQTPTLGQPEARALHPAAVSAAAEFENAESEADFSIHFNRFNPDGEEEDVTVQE
UniProt O95319: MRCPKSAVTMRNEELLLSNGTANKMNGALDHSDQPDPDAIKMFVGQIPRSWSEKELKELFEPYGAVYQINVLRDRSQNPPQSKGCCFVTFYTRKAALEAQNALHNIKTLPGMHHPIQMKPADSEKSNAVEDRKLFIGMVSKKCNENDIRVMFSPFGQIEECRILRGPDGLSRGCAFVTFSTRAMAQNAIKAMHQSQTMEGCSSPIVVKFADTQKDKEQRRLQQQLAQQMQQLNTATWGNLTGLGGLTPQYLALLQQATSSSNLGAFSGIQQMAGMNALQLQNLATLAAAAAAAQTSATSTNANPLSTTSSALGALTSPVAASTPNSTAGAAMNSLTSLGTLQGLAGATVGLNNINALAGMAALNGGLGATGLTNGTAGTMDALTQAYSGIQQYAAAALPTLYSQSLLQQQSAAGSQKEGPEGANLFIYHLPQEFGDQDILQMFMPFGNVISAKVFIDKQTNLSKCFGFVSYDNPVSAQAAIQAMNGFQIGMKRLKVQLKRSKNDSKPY
UniProt Q8IWY9: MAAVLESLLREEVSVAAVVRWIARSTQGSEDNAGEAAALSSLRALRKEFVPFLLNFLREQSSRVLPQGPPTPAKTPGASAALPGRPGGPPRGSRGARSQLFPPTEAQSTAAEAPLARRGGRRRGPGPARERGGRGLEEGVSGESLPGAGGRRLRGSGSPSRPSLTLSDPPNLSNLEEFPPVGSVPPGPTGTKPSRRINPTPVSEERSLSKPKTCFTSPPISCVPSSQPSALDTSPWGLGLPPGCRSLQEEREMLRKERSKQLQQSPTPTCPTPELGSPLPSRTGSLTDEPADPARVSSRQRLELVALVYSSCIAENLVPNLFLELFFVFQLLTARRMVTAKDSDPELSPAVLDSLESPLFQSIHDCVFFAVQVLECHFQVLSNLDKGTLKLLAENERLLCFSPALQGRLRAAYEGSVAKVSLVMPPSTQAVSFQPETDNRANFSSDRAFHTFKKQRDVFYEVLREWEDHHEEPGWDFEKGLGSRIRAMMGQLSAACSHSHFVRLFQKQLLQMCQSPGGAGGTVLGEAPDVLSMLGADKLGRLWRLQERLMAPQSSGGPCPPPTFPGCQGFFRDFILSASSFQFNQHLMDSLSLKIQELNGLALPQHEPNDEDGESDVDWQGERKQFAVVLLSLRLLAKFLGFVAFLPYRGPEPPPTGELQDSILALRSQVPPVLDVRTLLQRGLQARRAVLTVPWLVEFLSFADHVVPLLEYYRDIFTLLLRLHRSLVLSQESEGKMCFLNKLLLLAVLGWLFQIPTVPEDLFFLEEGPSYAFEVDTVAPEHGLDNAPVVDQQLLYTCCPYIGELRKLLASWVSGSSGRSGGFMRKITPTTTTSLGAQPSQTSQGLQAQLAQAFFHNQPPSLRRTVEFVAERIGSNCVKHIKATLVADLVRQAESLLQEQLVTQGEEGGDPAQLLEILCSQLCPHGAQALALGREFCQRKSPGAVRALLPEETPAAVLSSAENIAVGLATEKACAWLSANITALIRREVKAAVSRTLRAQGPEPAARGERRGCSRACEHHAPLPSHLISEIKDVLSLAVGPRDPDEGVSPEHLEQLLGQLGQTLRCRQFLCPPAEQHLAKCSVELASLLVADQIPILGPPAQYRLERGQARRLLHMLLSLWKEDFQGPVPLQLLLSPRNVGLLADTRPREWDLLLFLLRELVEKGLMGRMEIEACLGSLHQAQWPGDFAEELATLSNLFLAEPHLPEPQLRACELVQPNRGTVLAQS
UniProt Q8N2Z9: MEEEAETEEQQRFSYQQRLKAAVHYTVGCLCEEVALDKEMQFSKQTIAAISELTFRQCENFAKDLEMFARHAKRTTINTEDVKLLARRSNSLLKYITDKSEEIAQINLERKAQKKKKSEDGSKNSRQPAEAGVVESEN
UniProt P57076: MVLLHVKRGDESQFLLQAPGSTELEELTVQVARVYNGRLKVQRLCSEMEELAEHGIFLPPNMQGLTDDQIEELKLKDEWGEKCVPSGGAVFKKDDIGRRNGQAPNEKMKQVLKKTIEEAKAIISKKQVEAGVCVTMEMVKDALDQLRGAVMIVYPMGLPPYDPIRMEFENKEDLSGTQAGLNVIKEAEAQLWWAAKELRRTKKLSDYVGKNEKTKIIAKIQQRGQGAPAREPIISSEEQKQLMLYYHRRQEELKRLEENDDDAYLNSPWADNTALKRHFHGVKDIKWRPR
UniProt O14519: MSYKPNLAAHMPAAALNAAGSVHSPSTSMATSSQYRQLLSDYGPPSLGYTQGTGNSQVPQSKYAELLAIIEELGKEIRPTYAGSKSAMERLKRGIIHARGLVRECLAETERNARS
UniProt Q9Y281, whole entry, looked up: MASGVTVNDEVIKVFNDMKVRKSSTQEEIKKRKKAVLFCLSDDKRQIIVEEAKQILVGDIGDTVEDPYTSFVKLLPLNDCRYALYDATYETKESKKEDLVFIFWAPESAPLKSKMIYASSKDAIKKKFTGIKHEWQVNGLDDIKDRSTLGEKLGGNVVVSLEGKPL

What was measured:
Assay in all cases: log2 fold change, soluble protein after heating vs DMSO (PISA); higher = thermal stabilisation; K562 lysate, 10 uM; active = over 0.2 and 3.5 SD of the protein, either way, in both replicates (recomputed)
[1] = compound: CCCS(=O)(=O)Nc1ccc(F)c(C(=O)c2c[nH]c3ncc(-c4ccc(Cl)cc4)cc23)c1F [vemurafenib]
Summary of the method: (§1)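 Soluble protein was defined as the supernatant remaining after 21,000xg for 90 min, following pooling of heated aliquots and adjustment to 0.5% NP-40 at 4°C. Before that, crude K562 extract at 1 mg/mL protein in PBS pH 7.4 with 1 mM MgCl2 was treated with 10 μM compound for 30 min and heated for 3 min across 48°C-58°C. Quantification used TMTpro 16plex LC-MS/MS with channel sums equalised, and values are log-two fold changes in thermal stability relative to solvent controls from duplicates.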

[2] = compound: CCCS(=O)(=O)Nc1ccc(F)c(C(=O)c2c[nH]c3ncc(Cl)cc23)c1F
Summary of the method: as §1

[3] = compound: CCN(CCCOc1ccc2c(Nc3cc(CC(=O)Nc4cccc(F)c4)[nH]n3)ncnc2c1)CCOP(=O)(O)O [barasertib]
Summary of the method: as §1

[4] = compound: CC[C@@H]1C(=O)N(C)c2cnc(Nc3ccc(C(=O)NC4CCN(C)CC4)cc3OC)nc2N1C1CCCC1
Summary of the method: as §1

[5] = compound: CC[C@@H]1C(=O)N(C)c2cnc(Nc3ccc(C(=O)N[C@H]4CC[C@H](N5CCN(CC6CC6)CC5)CC4)cc3OC)nc2N1C(C)C [volasertib]
Summary of the method: as §1

[6] = compound: CCn1c(C(=O)N(C2CC2)C2CC2)cc2c3c(ncn3C)c(Nc3cc(C)n(C)n3)nc21
Summary of the method: as §1

[7] = compound: CCn1cc(-c2ccnc3[nH]c(-c4cccc(CN(C)C)c4)cc23)c(-c2ccc(NC(=O)N(C)C)cc2)n1
Summary of the method: as §1

[8] = compound: CN1CCC(CNc2ccc3ncc(-c4cccc(OC(F)(F)F)c4)n3n2)CC1
Summary of the method: as §1

[9] = compound: CN1CCN(CCOc2cc(OC3CCOCC3)c3c(Nc4c(Cl)ccc5c4OCO5)ncnc3c2)CC1 [saracatinib]
Summary of the method: as §1

[10] = compound: CN1CCN(c2nc(C3=C(c4c[nH]c5ccccc45)C(=O)NC3=O)c3ccccc3n2)CC1 [sotrastaurin]
Summary of the method: as §1

[11] = compound: CN1CC[C@H](c2c(O)cc(O)c3c(=O)cc(-c4ccccc4Cl)oc23)[C@H](O)C1 [alvocidib]
Summary of the method: as §1

[12] = compound: CN1CCc2c(c3ccccc3n2Cc2ccc(C(=O)NO)cc2)C1 [Tubastatin A]
Summary of the method: as §1

[13] = compound: CNC(=O)C1=CC=CC=C1NC2=NC(=NC=C2Cl)NC3=C(C=C(C=C3)N4CCOCC4)OC
Summary of the method: as §1

[14] = compound: CNC(=O)c1ccc(Nc2ncc(C(F)(F)F)c(NCc3nccnc3N(C)S(C)(=O)=O)n2)cc1 [defactinib]
Summary of the method: as §1

[15] = compound: CNc1nc(-c2ccc3c(N)n[nH]c3c2)cc(N2C[C@@H](C(=O)NC3CCCCC3)CC[C@H]2C)n1
Summary of the method: as §1

[16] = compound: COC(=O)N[C@@H](C)CNc1nccc(-c2cn(C(C)C)nc2-c2cc(Cl)cc(NS(C)(=O)=O)c2F)n1 [encorafenib]
Summary of the method: as §1

[17] = compound: COC(=O)[C@H](CCSC)NC(=O)C1=C(C=C(C=C1)NC[C@H](CS)N)C2=CC=CC=C2
Summary of the method: as §1

[18] = compound: COc1cc(Nc2ncc3c(n2)-c2ccc(Cl)cc2C(c2c(F)cccc2OC)=NC3)ccc1C(=O)O [alisertib]
Summary of the method: as §1

[19] = compound: COc1cc2nc(-c3cc(F)ccc3O)nc(N[C@@H]3CNC[C@H]3C(C)(C)O)c2cc1OC
Summary of the method: as §1

[20] = compound: COc1cc2ncnc(Nc3ccc(F)c(Cl)c3)c2cc1OCCCN1CCOCC1 [gefitinib]
Summary of the method: as §1

| Target | log2 fold change [1] | log2 fold change [2] | log2 fold change [3] | log2 fold change [4] | log2 fold change [5] | log2 fold change [6] | log2 fold change [7] | log2 fold change [8] | log2 fold change [9] | log2 fold change [10] | log2 fold change [11] | log2 fold change [12] | log2 fold change [13] | log2 fold change [14] | log2 fold change [15] | log2 fold change [16] | log2 fold change [17] | log2 fold change [18] | log2 fold change [19] | log2 fold change [20] |
| --- | --- | --- | --- | --- | --- | --- | --- | --- | --- | --- | --- | --- | --- | --- | --- | --- | --- | --- | --- | --- |
| CEP120 (UniProt Q8N960) | inactive: 0.052 | inactive: -0.098 | inactive: 0.033 | inactive: -0.411 | inactive: 0.029 | inactive: -0.134 | inactive: -0.233 | inactive: 0.119 | inactive: 0.008 | inactive: 0.034 | inactive: -0.046 | inactive: 0.098 | inactive: -0.096 | inactive: -0.025 | inactive: 0.273 | inactive: 0.065 | inactive: -0.117 | inactive: 0.141 | inactive: 0.038 | inactive: 0.119 |
| CDKN2AIP (UniProt Q9NXV6) | inactive: 0.017 | inactive: 0.022 | inactive: -0.028 | inactive: 0.082 | inactive: -0.008 | inactive: -0.026 | inactive: -0.049 | inactive: 0.03 | inactive: -0.004 | inactive: 0.01 | inactive: -0.008 | inactive: -0.066 | inactive: -0.016 | inactive: -0.011 | inactive: 0.054 | inactive: 0.023 | active: 0.236 | inactive: 0.021 | inactive: -0.003 | inactive: -0.073 |
| CEBPZ (UniProt Q03701) | inactive: -0.039 | inactive: 0.039 | inactive: 0.014 | inactive: 0.016 | inactive: -0.003 | inactive: -0.004 | inactive: -0.05 | inactive: -0.016 | inactive: 0.05 | inactive: -0.005 | inactive: -0.021 | inactive: -0.074 | inactive: -0.006 | inactive: -0.047 | inactive: 0.002 | inactive: 0.098 | inactive: -0.072 | inactive: 0.01 | inactive: -0.026 | inactive: -0.002 |
| CDC5L (UniProt Q99459) | inactive: -0.011 | inactive: 0.011 | inactive: 0.002 | inactive: -0.07 | inactive: -0.037 | inactive: 0.015 | inactive: 0.051 | inactive: -0.096 | inactive: 0.012 | inactive: 0.018 | inactive: 0.01 | inactive: -0.05 | inactive: 0.005 | inactive: 0.003 | inactive: -0.017 | inactive: 0.004 | inactive: 0.02 | inactive: 0.01 | inactive: -0.007 | inactive: -0.006 |
| CDS2 (UniProt O95674) | inactive: 0.09 | inactive: 0.041 | inactive: 0.027 | inactive: 0.026 | inactive: 0.005 | inactive: -0.006 | inactive: 0.015 | inactive: 0.004 | inactive: -0.053 | inactive: 0.037 | inactive: -0.037 | inactive: 0.116 | inactive: -0.036 | inactive: 0.04 | inactive: -0.021 | inactive: 0.027 | inactive: 0.007 | inactive: 0.012 | inactive: 0.033 | inactive: 0 |
| CGGBP1 (UniProt Q9UFW8) | inactive: 0.008 | inactive: 0.011 | inactive: -0.02 | inactive: 0.02 | inactive: 0.043 | inactive: -0.005 | inactive: 0.021 | inactive: 0.027 | inactive: 0.059 | inactive: 0.035 | inactive: -0.009 | inactive: 0.029 | inactive: 0.042 | inactive: 0.002 | inactive: 0.05 | inactive: 0.006 | inactive: 0.035 | inactive: 0.059 | inactive: -0.015 | inactive: 0.026 |
| CENPQ (UniProt Q7L2Z9) | inactive: 0.069 | inactive: -0.167 | inactive: 0.038 | inactive: -0.023 | inactive: -0.115 | inactive: -0.084 | active: -0.44 | inactive: 0.095 | inactive: 0.033 | inactive: 0.023 | inactive: -0.122 | inactive: -0.016 | inactive: 0.032 | inactive: -0.085 | inactive: 0.055 | inactive: 0.169 | inactive: 0.025 | inactive: 0 | inactive: -0.068 | inactive: 0.091 |
| CDKN2C (UniProt P42773) | inactive: 0.029 | inactive: -0.001 | inactive: 0.357 | inactive: -0.046 | inactive: 0.085 | inactive: 0.065 | inactive: -0.076 | inactive: -0.082 | inactive: 0.062 | inactive: -0.058 | inactive: -0.041 | inactive: 0.13 | inactive: 0.054 | inactive: 0.146 | inactive: -0.04 | inactive: 0.063 | inactive: -0.047 | inactive: 0.072 | inactive: -0.029 | inactive: -0.094 |
| CEP170 (UniProt Q5SW79) | inactive: 0.049 | inactive: 0.015 | inactive: 0.018 | inactive: 0.019 | inactive: -0.008 | inactive: 0.01 | inactive: 0.015 | inactive: -0.195 | inactive: 0.013 | inactive: -0.001 | inactive: -0.043 | inactive: -0.046 | inactive: -0.068 | inactive: -0.097 | inactive: 0.049 | inactive: 0.036 | inactive: -0.017 | inactive: 0 | inactive: -0.002 | inactive: -0.035 |
| CELF2 isoform 3 (UniProt O95319) | inactive: 0.082 | inactive: 0.013 | inactive: 0.031 | inactive: 0.096 | inactive: -0.05 | inactive: 0.001 | inactive: 0.074 | inactive: -0.095 | inactive: 0.021 | inactive: -0.023 | inactive: 0.067 | inactive: -0.025 | inactive: 0.019 | inactive: 0.018 | inactive: -0.02 | inactive: 0.108 | inactive: -0.031 | inactive: 0.037 | inactive: -0.079 | inactive: -0.061 |
| CDAN1 (UniProt Q8IWY9) | inactive: -0.047 | inactive: 0.004 | inactive: 0.014 | inactive: -0.093 | inactive: -0.034 | inactive: 0.031 | inactive: -0.03 | inactive: -0.012 | inactive: 0.002 | inactive: -0.005 | inactive: -0.034 | inactive: -0.051 | inactive: 0.049 | inactive: 0.039 | inactive: 0.017 | inactive: -0.018 | inactive: 0.093 | inactive: 0.02 | inactive: -0.022 | inactive: -0.012 |
| CENPS (UniProt Q8N2Z9) | inactive: -0.016 | inactive: 0.043 | inactive: -0.046 | inactive: 0.063 | inactive: 0.058 | inactive: -0.054 | inactive: -0.376 | inactive: -0.008 | inactive: 0.053 | inactive: 0.008 | inactive: -0.03 | inactive: 0.014 | inactive: -0.005 | inactive: 0.073 | inactive: 0.095 | inactive: 0.015 | inactive: 0.016 | inactive: -0.069 | inactive: 0.004 | inactive: 0.081 |
| CFAP298 (UniProt P57076) | inactive: 0.022 | inactive: 0.024 | inactive: 0.004 | inactive: -0.008 | inactive: -0.019 | inactive: -0.002 | inactive: -0.006 | inactive: -0.026 | inactive: 0.029 | inactive: 0.005 | inactive: -0.024 | inactive: -0.047 | inactive: -0.01 | inactive: 0.016 | inactive: -0.061 | inactive: 0 | inactive: -0.002 | inactive: 0.017 | inactive: 0 | inactive: -0.011 |
| CDK2AP1 (UniProt O14519) | inactive: 0.143 | inactive: 0.031 | inactive: 0.148 | inactive: 0.033 | inactive: 0.1 | inactive: -0.059 | inactive: -0.083 | inactive: 0.03 | inactive: -0.055 | inactive: 0.031 | inactive: -0.02 | inactive: 0.14 | inactive: 0.203 | inactive: 0.067 | inactive: 0.169 | inactive: 0.037 | inactive: -0.232 | inactive: 0.04 | inactive: -0.069 | inactive: -0.084 |
| CFL2 (UniProt Q9Y281) | inactive: -0.012 | inactive: 0.005 | inactive: -0.021 | inactive: 0.028 | inactive: 0 | inactive: -0.023 | inactive: -0.063 | inactive: 0.032 | inactive: -0.068 | inactive: 0.013 | inactive: -0.012 | inactive: 0.015 | inactive: 0.015 | inactive: 0.139 | inactive: 0.107 | inactive: -0.003 | inactive: 0.009 | inactive: 0.002 | inactive: 0.005 | inactive: 0.065 |

Some entries already given, reduced to log2 fold change [19], log2 fold change [2] and log2 fold change [4].
Target | log2 fold change [19] | log2 fold change [2] | log2 fold change [4]
CENPQ (UniProt Q7L2Z9) | inactive: -0.068 | inactive: -0.167 | inactive: -0.023
CEP170 (UniProt Q5SW79) | inactive: -0.002 | inactive: 0.015 | inactive: 0.019
